For experiment [1], the system named is OAT1. Particulars: cited from earlier work.
Experiment [2] has as its target T1, OAT1 (Homo sapiens, UniProt Q4U2R8).
T1 sequence (Q4U2R8 1-563): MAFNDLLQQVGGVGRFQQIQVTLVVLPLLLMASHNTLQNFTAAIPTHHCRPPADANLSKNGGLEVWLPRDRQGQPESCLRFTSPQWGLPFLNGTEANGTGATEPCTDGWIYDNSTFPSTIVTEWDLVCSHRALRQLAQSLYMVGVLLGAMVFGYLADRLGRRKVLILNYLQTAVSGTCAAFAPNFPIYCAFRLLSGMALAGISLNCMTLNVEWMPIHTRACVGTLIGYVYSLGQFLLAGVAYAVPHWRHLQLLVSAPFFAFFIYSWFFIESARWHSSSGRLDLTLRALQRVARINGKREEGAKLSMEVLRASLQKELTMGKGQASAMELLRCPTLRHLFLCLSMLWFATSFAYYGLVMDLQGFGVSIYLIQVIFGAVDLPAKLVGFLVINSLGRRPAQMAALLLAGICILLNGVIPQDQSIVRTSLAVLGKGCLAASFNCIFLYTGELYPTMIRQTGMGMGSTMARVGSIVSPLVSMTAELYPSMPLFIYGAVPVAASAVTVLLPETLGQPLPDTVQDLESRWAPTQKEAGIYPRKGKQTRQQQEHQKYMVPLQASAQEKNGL
Put plainly: Inhibition of [3H]PAH uptake into CHO-OAT1 cells (IC50 determination). Particulars: IC50 for inhibition of [3H]PAH uptake, [3H]PAH 20 nM, mean ± SEM, n=4.

What is called IC50 is the concentration needed to halve the response being measured. The low end stands for inhibition by little substance, the high end for a need for much substance.

In the case of `NS(=O)(=O)c1cc(C(=O)O)c(NCc2ccco2)cc1Cl` [Furosemide, furosemide], in the experiment with OAT1 [1], the “Inhibition mechanism at OAT1” value is listed as “competitive”. For the same compound, the figures for the half-inhibitory concentration (IC50) against OAT1 [2] (15 sec incubation) and on OAT1 [2] (10 min incubation) were 19.6 ± 3 µM and 15.1 ± 2.2 µM, respectively.

Source of the values: article PMC10204490, “Incubation Time Influences Organic Anion Transporter 1 Kinetics and Renal Clearance Predictions” (Journal of Xenobiotics, 2023).
